What all share (assay): affinity purification with mass spectrometry; anti-FLAG immunoprecipitation from lysates of MDA-MB-231 cells with FLAG-tagged SNIP1, c-MYC or Flag-GFP control; glycine elution, SDS-PAGE, silver stain, bands cut for LC-MS/MS
In assay [1] the target is FLAG-tagged c-MYC (in MDA-MB-231 cells) (UniProt P01106).
Assay [2] concerns the target T1, Flag-SNIP1 (Smad nuclear-interacting protein 1) (UniProt Q8TAD8).
T1 sequence: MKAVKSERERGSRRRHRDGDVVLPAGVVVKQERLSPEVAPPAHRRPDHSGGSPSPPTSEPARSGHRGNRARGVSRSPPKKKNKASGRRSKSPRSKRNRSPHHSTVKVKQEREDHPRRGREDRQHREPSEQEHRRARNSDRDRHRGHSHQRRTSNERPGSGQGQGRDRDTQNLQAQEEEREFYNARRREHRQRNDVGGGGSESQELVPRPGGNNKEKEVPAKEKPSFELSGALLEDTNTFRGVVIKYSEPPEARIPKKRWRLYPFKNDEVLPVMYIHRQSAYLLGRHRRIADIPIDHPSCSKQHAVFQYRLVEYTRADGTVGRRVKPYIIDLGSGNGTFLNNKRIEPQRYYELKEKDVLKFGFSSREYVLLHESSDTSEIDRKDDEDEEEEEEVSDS

Chains of the proteins cited; added tags and fusions are not shown. Lines headed by an entry give the natural chain unless they say otherwise; changes in a name come on top. A line that says so, or that is headed by a name, gives the form on record, which may keep a tag or linker.
UniProt P01106: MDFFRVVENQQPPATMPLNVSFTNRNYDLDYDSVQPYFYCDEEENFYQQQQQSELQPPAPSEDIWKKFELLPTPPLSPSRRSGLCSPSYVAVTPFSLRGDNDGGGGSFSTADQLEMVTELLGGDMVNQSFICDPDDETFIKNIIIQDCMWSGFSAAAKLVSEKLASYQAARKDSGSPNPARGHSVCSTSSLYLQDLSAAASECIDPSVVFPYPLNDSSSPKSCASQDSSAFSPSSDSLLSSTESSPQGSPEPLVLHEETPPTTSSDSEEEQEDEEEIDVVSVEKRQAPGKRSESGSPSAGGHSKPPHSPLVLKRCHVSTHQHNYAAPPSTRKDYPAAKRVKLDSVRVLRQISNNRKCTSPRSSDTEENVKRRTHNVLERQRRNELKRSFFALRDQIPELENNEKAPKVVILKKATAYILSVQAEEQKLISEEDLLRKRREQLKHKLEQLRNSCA
UniProt Q92830: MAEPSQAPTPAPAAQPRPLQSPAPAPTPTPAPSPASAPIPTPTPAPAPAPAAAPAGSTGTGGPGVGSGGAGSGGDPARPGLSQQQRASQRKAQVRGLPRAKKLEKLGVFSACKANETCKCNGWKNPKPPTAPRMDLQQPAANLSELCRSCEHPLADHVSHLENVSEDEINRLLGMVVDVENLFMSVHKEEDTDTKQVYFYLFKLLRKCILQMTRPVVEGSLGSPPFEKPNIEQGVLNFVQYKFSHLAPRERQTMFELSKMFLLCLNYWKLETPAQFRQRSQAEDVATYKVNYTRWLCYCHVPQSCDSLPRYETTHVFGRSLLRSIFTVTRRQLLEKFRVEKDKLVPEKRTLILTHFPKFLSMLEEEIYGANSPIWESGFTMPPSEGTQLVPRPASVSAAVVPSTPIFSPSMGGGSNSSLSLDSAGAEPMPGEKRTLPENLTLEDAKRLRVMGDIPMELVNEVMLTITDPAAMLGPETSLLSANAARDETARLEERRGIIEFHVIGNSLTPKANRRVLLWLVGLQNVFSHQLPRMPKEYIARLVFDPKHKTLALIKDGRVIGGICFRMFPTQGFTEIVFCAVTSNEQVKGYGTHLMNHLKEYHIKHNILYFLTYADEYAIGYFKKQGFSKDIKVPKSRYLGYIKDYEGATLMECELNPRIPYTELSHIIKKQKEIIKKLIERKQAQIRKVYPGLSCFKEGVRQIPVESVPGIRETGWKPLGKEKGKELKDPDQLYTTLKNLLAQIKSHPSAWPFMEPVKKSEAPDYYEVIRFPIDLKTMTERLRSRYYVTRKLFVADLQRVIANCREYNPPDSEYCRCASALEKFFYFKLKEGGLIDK
endogenous KMT5A (Q9NQR1-2, form named): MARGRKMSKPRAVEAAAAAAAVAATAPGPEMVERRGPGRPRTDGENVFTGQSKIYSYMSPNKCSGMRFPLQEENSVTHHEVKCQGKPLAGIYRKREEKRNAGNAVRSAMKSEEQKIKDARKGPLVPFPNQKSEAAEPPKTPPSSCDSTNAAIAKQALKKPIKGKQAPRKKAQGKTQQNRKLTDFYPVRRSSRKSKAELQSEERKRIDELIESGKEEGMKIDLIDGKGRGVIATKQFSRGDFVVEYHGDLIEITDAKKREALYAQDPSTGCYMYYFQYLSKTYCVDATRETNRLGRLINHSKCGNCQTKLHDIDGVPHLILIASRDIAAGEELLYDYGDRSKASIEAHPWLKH

In assay [3] the target is FLAG-tagged c-MYC (in MDA-MB-231 cells) (UniProt P01106). This is another data set of the same source.

Read-outs that look alike come from different tables or passages of the source. Results are given in words; binding and its absence hold for the method and conditions named. Binding seen in cells or lysates may run through a third protein. These calls come from enrichment with a bait or labelling near it, and not all partners need be listed. For part of these data: Sequences can lack the tags named with a protein.

Consider “endogenous KAT2A (from UniProt Q92830 1-837) (enzyme)”, for which the binding entry in assay [1] was “binds”.

Consider “endogenous KMT5A (from UniProt Q9NQR1-2 1-352) (enzyme)”, for which the binding result in assay [2] is on record as “binds”.

B1: endogenous SNIP1 (protein, UniProt Q8TAD8 1-396)
chain: MKAVKSERERGSRRRHRDGDVVLPAGVVVKQERLSPEVAPPAHRRPDHSGGSPSPPTSEPARSGHRGNRARGVSRSPPKKKNKASGRRSKSPRSKRNRSPHHSTVKVKQEREDHPRRGREDRQHREPSEQEHRRARNSDRDRHRGHSHQRRTSNERPGSGQGQGRDRDTQNLQAQEEEREFYNARRREHRQRNDVGGGGSESQELVPRPGGNNKEKEVPAKEKPSFELSGALLEDTNTFRGVVIKYSEPPEARIPKKRWRLYPFKNDEVLPVMYIHRQSAYLLGRHRRIADIPIDHPSCSKQHAVFQYRLVEYTRADGTVGRRVKPYIIDLGSGNGTFLNNKRIEPQRYYELKEKDVLKFGFSSREYVLLHESSDTSEIDRKDDEDEEEEEEVSDS
In the case of B1, the binding result in assay [3] is “binds”.

These data come from publication PMC9023492.
